The target of this experiment is Programmed death ligand-1 (human (endogenous in primary IPF human lung fibroblasts)) (UniProt Q9NZQ7). Description: co-IP; PD-L1 antibody (E1L3N) or control IgG with Protein A/G PLUS-Agarose, 4 °C; RIPA whole cell lysates of serum-starved primary IPF HLFs treated with vehicle or TGF-β (5 ng/mL, 12 h); blot for Smad3.

Chains of the proteins cited; added tags and fusions are not shown. Residues count along the entry.
UniProt Q9NZQ7, residues 19-290: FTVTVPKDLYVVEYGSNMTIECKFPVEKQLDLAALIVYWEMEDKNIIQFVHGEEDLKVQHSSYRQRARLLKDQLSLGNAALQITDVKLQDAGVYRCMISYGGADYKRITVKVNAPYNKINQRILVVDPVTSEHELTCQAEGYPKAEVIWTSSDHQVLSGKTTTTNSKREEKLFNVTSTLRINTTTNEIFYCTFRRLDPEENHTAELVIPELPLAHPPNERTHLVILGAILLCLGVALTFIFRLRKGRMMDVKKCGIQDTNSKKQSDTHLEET
UniProt P84022: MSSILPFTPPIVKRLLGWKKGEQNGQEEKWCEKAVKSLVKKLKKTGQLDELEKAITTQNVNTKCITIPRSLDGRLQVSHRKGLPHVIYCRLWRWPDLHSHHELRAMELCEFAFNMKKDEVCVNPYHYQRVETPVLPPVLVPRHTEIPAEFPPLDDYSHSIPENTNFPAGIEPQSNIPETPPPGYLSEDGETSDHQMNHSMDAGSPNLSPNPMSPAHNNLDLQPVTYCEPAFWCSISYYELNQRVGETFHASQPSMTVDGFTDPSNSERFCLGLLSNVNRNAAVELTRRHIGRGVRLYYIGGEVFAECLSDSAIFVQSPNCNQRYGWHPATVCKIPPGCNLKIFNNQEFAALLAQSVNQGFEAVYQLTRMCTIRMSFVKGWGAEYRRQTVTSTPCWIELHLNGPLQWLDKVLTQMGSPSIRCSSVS

No constants are given. Whether binding was seen depends on the method and setting. In cells and extracts the contact can be indirect. Some results given as binding are weak or reduced against the parent protein; the word gives no strength.

Regarding Smad3 (from UniProt P84022 1-425), the binding result is listed as “binds”.

For the origin of these results see paper PMC8866514.
